From patent US7662789B2CJSC, priority 2004, dated 2010)
The star is where a group is joined. Cbz = O=C(OCc1ccccc1)*; OBn = c1ccc(CO*)cc1

Assay: general procedure: solution-phase peptide synthesis; N,N'-dicyclohexylcarbodiimide / N-oxybenzotriazol

Cbz-AE(OBn)D(OBn)R-OH
step yield (coupling step): 45%

H-Ala-Glu-Asp-Arg (SEQ ID NO:1)-OH
step yield (late stage modification step): 70% | final HPLC purity (purification step, 220 nm): 98.01%
